Data as given in US6770020B2 (priority 2001, dated 2004).
At least one compound was matched to its structure with a doubt left.

Columns and labels:
[1] = cited from earlier work
[2] = system: human glioblastoma cells (TB 10); assay: TOF-SIMS analysis of Gd in individual cells; type: cell-based; conditions: both cells, 72 hours exposure
Source text: Time of Flight Secondary Ion Mass-Spectrometry (TOF-SIMS), another technique for microchemical analysis^(22) was utilized to validate data from MEPHISTO spectromicroscopy, in addition to the ICP-MS data. Cell samples were bombarded with either 15 or 25 keV Ga^+ ions, focused in a microscopic beam, which induced desorption of the surface atoms. The emitted ions were then accelerated, and detected by a high resolution mass spectrometer. By scanning the microscopic Ga ion beam, TOF-SIMS produced images of the cell surface, and distribution maps of specific element isotopes, with a spatial resolution of […]. High resolution mass spectra were obtained from microscopic areas, selected as the region of interest in the cell images, to allow quantitative comparison of Gd concentration in sub-cellular regions.
The results obtained in MEPHISTO were corroborated by the TOF-SIMS) data, an independent technique to evaluate elemental distributions at a microscopic scale. Two cells were studied from one of the etched 72-hour exposure samples used in the MEPHISTO experiment. […]
TOF-SIMS analysis of a non-etched cell at the nucleus position (also Gd-exposed for 72 hours), was performed before and after strong sputtering to probe the Gd concentration on the membrane and inside the nucleus. The total Gd ion yield, calculated as for the first column of Table 2, gave 0.055 cts/s on the unsputtered sample. […]

[3] = cited from earlier work; remark: listed apart in the source
[4] = cited from earlier work; remark: listed apart in the source

| Compound | inhibitory interaction with enzymes [1] | nucleus:cytoplasm ratio of gadolinium ion yield [2] | protein-binding [3] | lipophilicity compared with the parent compound [4] |
| --- | --- | --- | --- | --- |
| O=C([O-])CN(CCN(CC(=O)[O-])CC(=O)O)CCN(CC(=O)[O-])CC(=O)O.[Gd+3] [Gd-DTPA, gadolinium diethylene triamine pentaacetic acid] | nor does it exhibit any inhibitory interaction with enzymes | # and oxides were recorded as shown, and added to give the total Gd ion yield displayed in the first data column on the left. For both cells, the nucleus:cytoplasm ratio of gadolinium ion yield exceeded 1.5:1. | no appreciable protein-binding |  |
| O=C([O-])CN(CCN(CC(=O)[O-])CC(COP(=O)([O-])OC1CCC(c2ccccc2)(c2ccccc2)CC1)N(CC(=O)[O-])CC(=O)[O-])CC(=O)[O-].[Gd+3].[Na+].[Na+].[Na+] (stereo not shown) [gadophostriamine trisodium] |  |  |  | much more lipophilic |
